Results as given in article PMC6545562, “Slx5/Slx8‐dependent ubiquitin hotspots on chromatin contribute to stress tolerance” (The EMBO Journal, 2019).
No constants are given. Whether binding was seen depends on the method and setting. In cells and extracts the contact can be indirect. Some binding calls cover weakened binding; strength is not graded here. Tags and fused reporters may be left off the sequences shown.

Tests used:
Assay in all cases: co-IP; native lysates of euc1∆ yeast expressing 3FLAG-Euc1 constructs from plasmids (EUC1 promoter); anti-FLAG beads (M2); eluates blotted for Slx5; also in the slx8-CD strain
[1] = target: T1, 3FLAG-Euc1 (wild type) (S. cerevisiae) (UniProt Q04461)
T1 sequence: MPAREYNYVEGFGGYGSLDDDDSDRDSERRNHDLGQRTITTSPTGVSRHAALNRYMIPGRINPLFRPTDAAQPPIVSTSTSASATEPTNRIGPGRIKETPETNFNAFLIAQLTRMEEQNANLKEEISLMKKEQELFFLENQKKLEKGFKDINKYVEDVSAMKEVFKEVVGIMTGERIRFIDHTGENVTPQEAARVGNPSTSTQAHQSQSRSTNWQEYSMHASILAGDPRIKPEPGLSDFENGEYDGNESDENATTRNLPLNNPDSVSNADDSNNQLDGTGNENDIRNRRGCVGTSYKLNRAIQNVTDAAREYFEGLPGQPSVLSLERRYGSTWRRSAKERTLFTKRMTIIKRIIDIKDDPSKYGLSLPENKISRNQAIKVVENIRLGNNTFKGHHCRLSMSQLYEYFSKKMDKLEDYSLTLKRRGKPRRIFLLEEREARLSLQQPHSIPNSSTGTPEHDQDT

[2] = target: T2, 3FLAG-Euc1-DBD* (W333A, R334A) (S. cerevisiae) (UniProt Q04461)
T2 sequence: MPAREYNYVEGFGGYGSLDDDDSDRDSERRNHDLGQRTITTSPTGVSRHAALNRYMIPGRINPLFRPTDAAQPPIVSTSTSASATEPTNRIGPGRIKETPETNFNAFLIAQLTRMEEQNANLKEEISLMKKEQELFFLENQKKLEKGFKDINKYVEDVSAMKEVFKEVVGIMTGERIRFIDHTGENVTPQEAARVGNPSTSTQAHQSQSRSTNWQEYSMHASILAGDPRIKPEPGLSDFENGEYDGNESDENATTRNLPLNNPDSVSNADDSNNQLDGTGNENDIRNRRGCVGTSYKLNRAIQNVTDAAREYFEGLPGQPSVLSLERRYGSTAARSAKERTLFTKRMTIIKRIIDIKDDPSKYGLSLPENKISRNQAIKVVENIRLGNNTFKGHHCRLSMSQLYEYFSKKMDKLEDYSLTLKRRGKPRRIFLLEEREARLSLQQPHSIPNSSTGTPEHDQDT

[3] = target: T3, 3FLAG-Euc1-KR (K231R) (S. cerevisiae) (UniProt Q04461)
T3 sequence: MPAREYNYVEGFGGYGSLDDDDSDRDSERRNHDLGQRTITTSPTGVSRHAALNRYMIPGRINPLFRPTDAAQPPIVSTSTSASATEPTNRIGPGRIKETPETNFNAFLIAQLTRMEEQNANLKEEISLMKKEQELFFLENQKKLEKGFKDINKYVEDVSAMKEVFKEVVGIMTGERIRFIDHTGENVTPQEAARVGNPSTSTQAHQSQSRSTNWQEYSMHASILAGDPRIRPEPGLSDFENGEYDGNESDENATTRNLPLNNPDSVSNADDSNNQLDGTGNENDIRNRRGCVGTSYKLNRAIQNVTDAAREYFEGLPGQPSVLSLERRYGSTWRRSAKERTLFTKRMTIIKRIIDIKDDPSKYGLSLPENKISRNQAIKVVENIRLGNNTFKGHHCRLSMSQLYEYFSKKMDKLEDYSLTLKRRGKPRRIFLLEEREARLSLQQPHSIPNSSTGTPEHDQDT

Measured: binding

B1: Slx5, endogenous (protein, UniProt P32828 1-619)
chain: MHSDTNGRTKSNNSPSDNNPNETVILIDSDKEEDASIREANLPVRLYPDRRVGRRRDALNRFVRSDSRSRNSQRTHITASSERPDFQANNDDITIIREVGRFFGDDGPIDPSAHYVDLDQEPGSETLETPRTIQVDNTNGYLNDNGNNNESDDGLTIVEERTTRPRVTLNLPGGERLEVTATTTDIPIRRSFEFQEDLGASRRQLLRRSATRARNLFVDRSDENDEDWTDDTHNLPEAIQRARRESRMRMSRRIAERQRRVQQQRVSSDENISTSIRLQSIRERIQSYTPDIRSAFHRAESLHEFRSILQNVAPITLQECEEELMALFTEFRNQLLQNWAIDRVRNTQEEALRLHREALERQERTAGRVFHRGTLRESITNYLNFNGEDGFLSRLWSGPALSDADEERHTQNIIDMIQEREERERDVVMKNLMNKTRAQQEEFEARAASLPEGYSASFDTTPKMKLDITKNGKEETIIVTDDDLAKTLEDIPVCCLCGAELGVGIPDDFTGISQKDRGVSFEGLVSKYKFHCPYQTLARPSMLDRDLSKRTFIASCGHAFCGRCFARIDNAKKKSKMPKKKLAQLKGSAHPDNYGPKLCPADSCKKLIRSRGRLKEVYF
binds: all assays above
